# Results taken from the supplement of paper PMC8728848.
# The other results are listed elsewhere or left out.
# Tests used:
# Experiment in all cases: glycan array binding signal (z-score within array); higher = stronger binding
# Details in all cases: glycan notation: IUPAC condensed, linker removed
# [1] = target: Neu5Ac(a2-6)Gal(b1-4)GlcNAc(b1-2)Man(a1-3)[Man(a1-6)]Man(b1-4)GlcNAc(b1-4)GlcNAc
# Summary of the method: (§1)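 Glycan array data were curated from 3228 arrays in the Consortium for Functional Glycomics database and kept only where the protein sequence was available. Glycan names were converted to IUPAC-condensed notation, and columns mapping to the same glycan were averaged. The binding signal is a within-array Z-score, averaged across arrays of the same protein sequence at different concentrations or buffers and across linkers. Negative Z-scores can be read as non-binding.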
# [2] = target: Neu5Ac(a2-6)Gal(b1-4)GlcNAc(b1-2)Man(a1-3)[Neu5Ac(a2-3)Gal(b1-4)GlcNAc(b1-2)Man(a1-6)]Man(b1-4)GlcNAc(b1-4)GlcNAc
# Summary of the method: as §1
# [3] = target: Neu5Ac(a2-6)Gal(b1-4)GlcNAc(b1-2)Man(a1-3)[Neu5Ac(a2-6)Gal(b1-4)GlcNAc(b1-2)Man(a1-6)]Man(b1-4)GlcNAc(b1-4)GlcNAc
# Summary of the method: as §1
# [4] = target: Neu5Ac(a2-6)Gal(b1-4)GlcNAc(b1-2)Man(a1-3)[Neu5Ac(a2-6)Gal(b1-4)GlcNAc(b1-2)Man(a1-6)]Man(b1-4)GlcNAc(b1-4)[Fuc(a1-6)]GlcNAc
# Summary of the method: as §1
# [5] = target: Neu5Ac(a2-6)Gal(b1-4)GlcNAc(b1-2)Man(a1-6)Man(b1-4)GlcNAc(b1-4)GlcNAc
# Summary of the method: as §1
# [6] = target: Neu5Ac(a2-6)Gal(b1-4)GlcNAc(b1-2)Man(a1-6)[Gal(b1-4)GlcNAc(b1-2)Man(a1-3)]Man(b1-4)GlcNAc(b1-4)GlcNAc
# Summary of the method: as §1
# [7] = target: Neu5Ac(a2-6)Gal(b1-4)GlcNAc(b1-2)Man(a1-6)[GlcNAc(b1-2)Man(a1-3)]Man(b1-4)GlcNAc(b1-4)GlcNAc
# Summary of the method: as §1
# [8] = target: Neu5Ac(a2-6)Gal(b1-4)GlcNAc(b1-2)Man(a1-6)[Man(a1-3)]Man(b1-4)GlcNAc(b1-4)GlcNAc
# Summary of the method: as §1
# [9] = target: Neu5Ac(a2-6)Gal(b1-4)GlcNAc(b1-2)[Neu5Ac(a2-6)Gal(b1-4)GlcNAc(b1-4)]Man(a1-3)[GlcNAc(b1-4)][Neu5Ac(a2-6)Gal(b1-4)GlcNAc(b1-2)[Neu5Ac(a2-6)Gal(b1-4)GlcNAc(b1-6)]Man(a1-6)]Man(b1-4)GlcNAc(b1-4)GlcNAc
# Summary of the method: as §1
# [10] = target: Neu5Ac(a2-6)Gal(b1-4)GlcNAc(b1-2)[Neu5Ac(a2-6)Gal(b1-4)GlcNAc(b1-4)]Man(a1-3)[GlcNAc(b1-4)][Neu5Ac(a2-6)Gal(b1-4)GlcNAc(b1-4)Man(a1-6)]Man(b1-4)GlcNAc(b1-4)GlcNAc
# Summary of the method: as §1
# [11] = target: Neu5Ac(a2-6)Gal(b1-4)GlcNAc(b1-2)[Neu5Ac(a2-6)Gal(b1-4)GlcNAc(b1-6)]Man(a1-6)[Neu5Ac(a2-6)Gal(b1-4)GlcNAc(b1-2)Man(a1-3)][GlcNAc(b1-4)]Man(b1-4)GlcNAc(b1-4)GlcNAc
# Summary of the method: as §1
# [12] = target: Neu5Ac(a2-6)Gal(b1-4)GlcNAc(b1-3)Gal(b1-3)GlcNAc
# Summary of the method: as §1
# [13] = target: Neu5Ac(a2-6)Gal(b1-4)GlcNAc(b1-3)Gal(b1-4)GlcNAc
# Summary of the method: as §1
# [14] = target: Neu5Ac(a2-6)Gal(b1-4)GlcNAc(b1-3)Gal(b1-4)GlcNAc(b1-2)Man(a1-3)[Neu5Ac(a2-6)Gal(b1-4)GlcNAc(b1-3)Gal(b1-4)GlcNAc(b1-2)Man(a1-6)]GalNAc
# Summary of the method: as §1
# [15] = target: Neu5Ac(a2-6)Gal(b1-4)GlcNAc(b1-3)Gal(b1-4)GlcNAc(b1-3)Gal(b1-4)GlcNAc
# Summary of the method: as §1
# [16] = target: Neu5Ac(a2-6)Gal(b1-4)GlcNAc(b1-3)Gal(b1-4)GlcNAc(b1-3)Gal(b1-4)GlcNAc(b1-2)Man(a1-3)[Neu5Ac(a2-6)Gal(b1-4)GlcNAc(b1-3)Gal(b1-4)GlcNAc(b1-3)Gal(b1-4)GlcNAc(b1-2)Man(a1-6)]GalNAc
# Summary of the method: as §1
# [17] = target: Neu5Ac(a2-6)Gal(b1-4)GlcNAc(b1-3)Gal(b1-4)GlcNAc(b1-3)GalNAc
# Summary of the method: as §1
# [18] = target: Neu5Ac(a2-6)Gal(b1-4)GlcNAc(b1-3)Gal(b1-4)GlcNAc(b1-3)[Neu5Ac(a2-6)Gal(b1-4)GlcNAc(b1-3)Gal(b1-4)GlcNAc(b1-6)]GalNAc
# Summary of the method: as §1
# [19] = target: Neu5Ac(a2-6)Gal(b1-4)GlcNAc(b1-3)Gal(b1-4)GlcNAc(b1-6)[Gal(b1-3)]GalNAc
# Summary of the method: as §1
# [20] = target: Neu5Ac(a2-6)Gal(b1-4)GlcNAc(b1-3)Gal(b1-4)[Fuc(a1-3)]GlcNAc(b1-3)Gal(b1-4)[Fuc(a1-3)]GlcNAc
# Summary of the method: as §1
# [21] = target: Neu5Ac(a2-6)Gal(b1-4)GlcNAc(b1-3)GalNAc
# Summary of the method: as §1
# [22] = target: Neu5Ac(a2-6)Gal(b1-4)GlcNAc(b1-3)[Neu5Ac(a2-6)Gal(b1-4)GlcNAc(b1-6)]GalNAc
# Summary of the method: as §1
# [23] = target: Neu5Ac(a2-6)Gal(b1-4)GlcNAc(b1-6)GalNAc
# Summary of the method: as §1
# [24] = target: Neu5Ac(a2-6)Gal(b1-4)GlcNAc(b1-6)[Gal(b1-3)GlcNAc(b1-3)]Gal(b1-4)Glc
# Summary of the method: as §1
# [25] = target: Neu5Ac(a2-6)Gal(b1-4)GlcNAc(b1-6)[Gal(b1-3)]GalNAc
# Summary of the method: as §1
# [26] = target: Neu5Ac(a2-6)Gal(b1-4)GlcNAc6S
# Summary of the method: as §1
# Neu5Ac(a2-6)GalNAc = target: Neu5Ac(a2-6)GalNAc
# Summary of the method: as §1
# [27] = target: Neu5Ac(a2-6)GalNAc(b1-4)GlcNAc
# Summary of the method: as §1
# [28] = target: Neu5Ac(a2-6)GalNAc(b1-4)GlcNAc6S
# Summary of the method: as §1
# [29] = target: Neu5Ac(a2-6)GlcNAc(b1-4)GlcNAc
# Summary of the method: as §1
# [30] = target: Neu5Ac(a2-6)GlcNAc(b1-4)GlcNAc(b1-4)GlcNAc
# Summary of the method: as §1
binder,measurement,setting,value
PX9961K-bvu-480-28-480 (Bacteroides vulgatus) (protein) NKIPTTMAFRTVTDVDNAVNGLYDLMSGSGYYGAAMFAYGDMKGDDMQSSEESGVCNTCYMFNHRPNSLNAGSLWGRPFYILREAWNILNAIAEGKIESGDEKKLNALKGETMAVIALCQFDLTRCFGYPYTKDKGASLGAPLIDHLVGTYENPPRSTVAQAYDFIIETLEEAVTLMSEEKNNGRMNKYAARALLARIYLYHDDNRKAFDLADQLIKDADTSGSYALYPHEKYVAAWSVEAKFGSESFFEIANSVDDTPGRDSWGYLLNWYGYQKGFVTQKYAEQMLADPGDVRGHLLEENKYAGKTVWWLYKLRGTDLKTAPLECNNVVLRLSEVYLIAAEAGCKLGGDAAVQGLGYLNEIVKRGNPDNEVTMADYTLDRVLDERSKELVGEGHRFFDLLRNGKTIVRKGGYHLPSVDEEVDWDFYKCVLPIPEDQFIFSPEMEQNPGYPKN,glycan array binding signal (z-score),[1],-0.647
same,glycan array binding signal (z-score),[2],0.838
same,glycan array binding signal (z-score),[3],0.062
same,glycan array binding signal (z-score),[4],1.16
same,glycan array binding signal (z-score),[5],-0.354
same,glycan array binding signal (z-score),[6],-0.856
same,glycan array binding signal (z-score),[7],-0.267
same,glycan array binding signal (z-score),[8],0.122
same,glycan array binding signal (z-score),[9],-0.481
same,glycan array binding signal (z-score),[10],0.359
same,glycan array binding signal (z-score),[11],-0.565
same,glycan array binding signal (z-score),[12],-0.615
same,glycan array binding signal (z-score),[13],-0.222
same,glycan array binding signal (z-score),[14],-0.602
same,glycan array binding signal (z-score),[15],-0.347
same,glycan array binding signal (z-score),[16],1.68
same,glycan array binding signal (z-score),[17],-0.51
same,glycan array binding signal (z-score),[18],0.842
same,glycan array binding signal (z-score),[19],0.328
same,glycan array binding signal (z-score),[20],-0.726
same,glycan array binding signal (z-score),[21],-0.715
same,glycan array binding signal (z-score),[22],-0.532
same,glycan array binding signal (z-score),[23],0.313
same,glycan array binding signal (z-score),[24],-0.718
same,glycan array binding signal (z-score),[25],-0.301
same,glycan array binding signal (z-score),[26],-0.825
same,glycan array binding signal (z-score),Neu5Ac(a2-6)GalNAc,-0.746
same,glycan array binding signal (z-score),[27],-0.376
same,glycan array binding signal (z-score),[28],-1.26
same,glycan array binding signal (z-score),[29],-0.301
same,glycan array binding signal (z-score),[30],0.25

# Pulled one by one from the list above, 2 records:
binder,measurement,setting,value
PX9961K-bvu-480-28-480 (Bacteroides vulgatus) (protein) NKIPTTMAFRTVTDVDNAVNGLYDLMSGSGYYGAAMFAYGDMKGDDMQSSEESGVCNTCYMFNHRPNSLNAGSLWGRPFYILREAWNILNAIAEGKIESGDEKKLNALKGETMAVIALCQFDLTRCFGYPYTKDKGASLGAPLIDHLVGTYENPPRSTVAQAYDFIIETLEEAVTLMSEEKNNGRMNKYAARALLARIYLYHDDNRKAFDLADQLIKDADTSGSYALYPHEKYVAAWSVEAKFGSESFFEIANSVDDTPGRDSWGYLLNWYGYQKGFVTQKYAEQMLADPGDVRGHLLEENKYAGKTVWWLYKLRGTDLKTAPLECNNVVLRLSEVYLIAAEAGCKLGGDAAVQGLGYLNEIVKRGNPDNEVTMADYTLDRVLDERSKELVGEGHRFFDLLRNGKTIVRKGGYHLPSVDEEVDWDFYKCVLPIPEDQFIFSPEMEQNPGYPKN,glycan array binding signal (z-score),[25],-0.301
same,glycan array binding signal (z-score),[13],-0.222
